Consider six molecules from publication PMC8020760, “Assembly of a dsRNA synthesizing complex: RNA-DEPENDENT RNA POLYMERASE 2 contacts the largest subunit of NUCLEAR RNA POLYMERASE IV” (Proceedings of the National Academy of Sciences of the …, 2021).

Results are given in words; binding and its absence hold for the method and conditions named. For part of these data: In cells and extracts the contact can be indirect. Some entries that bind do so weakly or less than the wild type. Where a sequence is shown, tags or fusion partners need not be part of it.

Assay [1] has as its target T1, recombinant NRPD1_(1–300) with His and FLAG tags, made in E. coli (A. thaliana) (UniProt Q9LQ02).
T1 sequence: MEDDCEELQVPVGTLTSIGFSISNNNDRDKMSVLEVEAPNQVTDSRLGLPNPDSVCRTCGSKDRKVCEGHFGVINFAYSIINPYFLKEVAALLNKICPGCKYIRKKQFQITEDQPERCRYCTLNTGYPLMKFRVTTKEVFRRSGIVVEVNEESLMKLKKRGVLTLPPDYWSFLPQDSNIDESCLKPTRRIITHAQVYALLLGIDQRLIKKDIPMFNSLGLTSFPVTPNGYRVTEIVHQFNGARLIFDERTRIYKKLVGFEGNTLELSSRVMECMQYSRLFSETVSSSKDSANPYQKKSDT
Briefly: co-IP; HA-tagged RDR2 polypeptides made in a bacterial transcription-translation system incubated with FLAG-tagged NRPD1_(1–300); anti-FLAG IP; anti-HA and anti-FLAG immunoblots; only the target purified. For orientation: In western blotting, separated proteins are transferred to a membrane and probed.

The target in assay [2] is T2, recombinant RNA-… RNA POLYMERASE 2 (RDR2), wild type, with N-terminal V5 epitope and 6xHis tags (A. thaliana) (UniProt O82504).
T2 sequence: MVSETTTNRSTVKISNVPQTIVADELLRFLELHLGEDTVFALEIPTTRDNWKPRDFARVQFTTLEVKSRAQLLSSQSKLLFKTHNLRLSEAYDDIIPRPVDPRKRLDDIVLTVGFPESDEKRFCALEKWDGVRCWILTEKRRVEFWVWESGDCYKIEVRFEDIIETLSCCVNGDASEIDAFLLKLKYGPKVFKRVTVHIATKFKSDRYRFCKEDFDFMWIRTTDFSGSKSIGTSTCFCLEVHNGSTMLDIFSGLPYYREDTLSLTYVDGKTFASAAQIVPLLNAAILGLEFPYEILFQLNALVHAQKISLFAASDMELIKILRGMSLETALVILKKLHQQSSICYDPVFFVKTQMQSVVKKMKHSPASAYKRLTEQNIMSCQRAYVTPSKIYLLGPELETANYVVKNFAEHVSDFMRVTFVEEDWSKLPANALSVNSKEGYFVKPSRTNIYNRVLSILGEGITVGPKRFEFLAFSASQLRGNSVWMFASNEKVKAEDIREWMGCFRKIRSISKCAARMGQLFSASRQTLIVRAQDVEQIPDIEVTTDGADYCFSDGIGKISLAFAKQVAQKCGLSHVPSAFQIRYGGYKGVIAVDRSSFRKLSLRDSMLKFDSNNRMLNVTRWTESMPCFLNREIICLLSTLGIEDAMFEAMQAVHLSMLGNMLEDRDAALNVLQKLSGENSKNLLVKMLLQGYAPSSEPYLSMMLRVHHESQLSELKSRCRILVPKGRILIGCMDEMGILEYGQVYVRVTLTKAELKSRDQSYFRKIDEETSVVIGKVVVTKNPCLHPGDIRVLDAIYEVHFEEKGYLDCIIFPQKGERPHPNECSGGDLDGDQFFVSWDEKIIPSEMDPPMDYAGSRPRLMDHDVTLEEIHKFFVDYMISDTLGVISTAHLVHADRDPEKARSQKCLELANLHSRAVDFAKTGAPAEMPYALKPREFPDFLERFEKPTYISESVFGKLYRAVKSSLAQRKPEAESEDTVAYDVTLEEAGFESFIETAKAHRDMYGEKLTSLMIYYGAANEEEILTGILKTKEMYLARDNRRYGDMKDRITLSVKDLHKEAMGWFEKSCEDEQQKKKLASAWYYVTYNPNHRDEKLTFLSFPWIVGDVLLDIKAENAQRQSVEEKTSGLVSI
Kind of assay: co-IP; FLAG-tagged NRPD1 polypeptides made in a bacterial transcription-translation system incubated with V5-tagged recombinant RDR2; anti-V5 IP; anti-FLAG and anti-V5 immunoblots; only the target purified.

Assay [3] addresses T3, NRPD1 fused to the Gal4 DNA binding domain or the Gal4 activation domain (A. thaliana) (UniProt Q9LQ02).
T3 sequence: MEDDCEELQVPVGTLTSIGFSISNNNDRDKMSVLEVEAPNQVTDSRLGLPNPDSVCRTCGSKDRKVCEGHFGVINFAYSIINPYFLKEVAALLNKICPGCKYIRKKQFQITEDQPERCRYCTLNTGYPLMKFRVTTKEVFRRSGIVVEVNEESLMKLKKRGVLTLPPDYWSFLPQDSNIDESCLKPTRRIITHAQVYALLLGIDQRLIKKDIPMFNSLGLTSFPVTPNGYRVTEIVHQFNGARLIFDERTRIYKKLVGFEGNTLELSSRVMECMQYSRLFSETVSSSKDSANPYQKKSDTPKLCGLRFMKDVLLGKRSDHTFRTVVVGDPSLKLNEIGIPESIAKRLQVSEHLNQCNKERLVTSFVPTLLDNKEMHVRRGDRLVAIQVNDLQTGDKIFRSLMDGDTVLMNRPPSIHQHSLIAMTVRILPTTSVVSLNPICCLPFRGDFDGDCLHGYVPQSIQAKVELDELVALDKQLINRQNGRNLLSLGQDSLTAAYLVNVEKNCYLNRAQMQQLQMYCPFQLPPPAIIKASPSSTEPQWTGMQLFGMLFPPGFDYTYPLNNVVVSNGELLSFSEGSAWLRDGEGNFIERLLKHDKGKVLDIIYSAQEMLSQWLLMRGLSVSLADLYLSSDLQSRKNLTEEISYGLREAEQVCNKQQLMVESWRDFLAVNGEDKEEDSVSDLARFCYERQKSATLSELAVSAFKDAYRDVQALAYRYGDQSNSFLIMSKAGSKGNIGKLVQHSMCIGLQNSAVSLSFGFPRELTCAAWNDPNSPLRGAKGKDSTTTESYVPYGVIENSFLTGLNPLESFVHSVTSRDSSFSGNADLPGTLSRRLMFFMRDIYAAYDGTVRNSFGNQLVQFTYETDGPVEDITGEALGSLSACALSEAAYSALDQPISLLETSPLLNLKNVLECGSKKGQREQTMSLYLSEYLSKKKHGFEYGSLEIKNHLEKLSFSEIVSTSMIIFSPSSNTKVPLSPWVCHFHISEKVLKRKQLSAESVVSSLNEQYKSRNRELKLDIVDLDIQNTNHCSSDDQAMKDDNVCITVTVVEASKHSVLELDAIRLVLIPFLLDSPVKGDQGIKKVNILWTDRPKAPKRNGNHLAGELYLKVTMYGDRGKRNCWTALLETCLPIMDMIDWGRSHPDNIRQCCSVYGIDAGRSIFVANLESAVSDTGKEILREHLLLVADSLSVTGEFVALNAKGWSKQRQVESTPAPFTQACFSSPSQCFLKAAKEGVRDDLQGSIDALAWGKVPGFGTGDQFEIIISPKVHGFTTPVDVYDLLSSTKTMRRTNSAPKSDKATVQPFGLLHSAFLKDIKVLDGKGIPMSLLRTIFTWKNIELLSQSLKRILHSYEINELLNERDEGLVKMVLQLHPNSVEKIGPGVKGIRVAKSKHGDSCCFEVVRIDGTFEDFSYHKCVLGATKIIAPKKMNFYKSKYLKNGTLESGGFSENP
Kind of assay: two-hybrid; yeast two-hybrid, S. cerevisiae MaV203, Gal4 DBD (pDEST32) bait and Gal4 AD (pDEST22) prey, growth on medium lacking Trp, Leu, His with 25 mM 3AT, 3 d at 30 °C.

B1: RDR2 polypeptide, amino acids 617–816, C-terminal HA tag, made in vitro (domain or fragment, UniProt O82504 617-816)
chain: MLNVTRWTESMPCFLNREIICLLSTLGIEDAMFEAMQAVHLSMLGNMLEDRDAALNVLQKLSGENSKNLLVKMLLQGYAPSSEPYLSMMLRVHHESQLSELKSRCRILVPKGRILIGCMDEMGILEYGQVYVRVTLTKAELKSRDQSYFRKIDEETSVVIGKVVVTKNPCLHPGDIRVLDAIYEVHFEEKGYLDCIIFPQ
With B1, in assay [1], the binding entry is “no binding”.

B2: NRPD1 polypeptide, amino acids 1–300, C-terminal FLAG tag, made in vitro (domain or fragment, UniProt Q9LQ02 1-300)
chain: T1 sequence
Take B2: the binding result in assay [2] is “binds”.

B3: recombinant RDR2_(771–970) with His and HA tags, made in E. coli (domain or fragment, A. thaliana, UniProt O82504 771-970, looked up)
chain: ETSVVIGKVVVTKNPCLHPGDIRVLDAIYEVHFEEKGYLDCIIFPQKGERPHPNECSGGDLDGDQFFVSWDEKIIPSEMDPPMDYAGSRPRLMDHDVTLEEIHKFFVDYMISDTLGVISTAHLVHADRDPEKARSQKCLELANLHSRAVDFAKTGAPAEMPYALKPREFPDFLERFEKPTYISESVFGKLYRAVKSSLAQ
notes: The methods give the C-terminal limit as 971, the results and legends as 970; More in SI Appendix, Methods; source: E. coli (pET28 vector), purified (nickel-NTA by the methods; anti-HA resin by the results)
As for B3, in assay [1], the binding entry is “binds”.

B4: RDR2 polypeptide, amino acids 925–1133, C-terminal HA tag, made in vitro (domain or fragment, UniProt O82504 925-1133)
chain: GAPAEMPYALKPREFPDFLERFEKPTYISESVFGKLYRAVKSSLAQRKPEAESEDTVAYDVTLEEAGFESFIETAKAHRDMYGEKLTSLMIYYGAANEEEILTGILKTKEMYLARDNRRYGDMKDRITLSVKDLHKEAMGWFEKSCEDEQQKKKLASAWYYVTYNPNHRDEKLTFLSFPWIVGDVLLDIKAENAQRQSVEEKTSGLVSI
In the case of B4, the binding entry in assay [1] is on record as “no binding”.

B5: NRPD1 polypeptide, amino acids 255–555, C-terminal FLAG tag, made in vitro (domain or fragment, UniProt Q9LQ02 255-555)
chain: KLVGFEGNTLELSSRVMECMQYSRLFSETVSSSKDSANPYQKKSDTPKLCGLRFMKDVLLGKRSDHTFRTVVVGDPSLKLNEIGIPESIAKRLQVSEHLNQCNKERLVTSFVPTLLDNKEMHVRRGDRLVAIQVNDLQTGDKIFRSLMDGDTVLMNRPPSIHQHSLIAMTVRILPTTSVVSLNPICCLPFRGDFDGDCLHGYVPQSIQAKVELDELVALDKQLINRQNGRNLLSLGQDSLTAAYLVNVEKNCYLNRAQMQQLQMYCPFQLPPPAIIKASPSSTEPQWTGMQLFGMLFPPGF
As to B5, the binding result in assay [2] is listed as “no binding”.

B6: RDR2 fused to the Gal4 DNA binding domain or the Gal4 activation domain (protein, UniProt O82504 1-1133)
chain: T2 sequence
B6: the binding entry in assay [3] is recorded as “binds”.
